# Test results as given in article PMC9941103.
# These are yes or no findings as the source states them, for the method shown. Some binding calls cover weakened binding; strength is not graded here.
# B1: full-length Complexin-1, P63041 1-134 (natural protein)
# chain: MEFVMKQALGGATKDMGKMLGGDEEKDPDAAKKEEERQEALRQAEEERKAKYAKMEAEREVMRQGIRDKYGIKKKEEREAEAQAAMEANSEGSLTRPKKAIPPGCGDEPEEEDESILDTVIKYLPGPLQDMFKK
# Target: T1, full-length Complexin-1, P63041
# T1 chain: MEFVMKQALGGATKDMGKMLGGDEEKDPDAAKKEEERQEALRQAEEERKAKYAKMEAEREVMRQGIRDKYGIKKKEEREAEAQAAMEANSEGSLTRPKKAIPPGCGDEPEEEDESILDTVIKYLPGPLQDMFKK
# Test: cross-linking; one protein alone: 10 µM SNAP25 or Syntaxin-1A with 150-fold molar excess of BS3, 50 µM Complexin-1 with 10-fold excess; trypsin, peptide SEC, LC-MS/MS; inter-molecular links told by identical or overlapping peptides; both purified
# Settings: remark: other sources report otherwise
binder,measurement,value
B1,binding,binds
